Experimental data as given in article PMC8994553, “Effects of chameleon dispense-to-plunge speed on particle concentration, complex formation, and final resolution: A case study using the Neisseria gonorrhoeae ribonucleotide reductase inactive complex” (Journal of structural biology, 2021).
Results are given in words; binding and its absence hold for the method and conditions named. Some entries that bind do so weakly or less than the wild type. Each block holds one binder with its values, some of them ahead of it.

Biological target: T1, Neisseria gonorrhoeae class Ia ribonucleotide reductase NrdA (α) subunit (Neisseria gonorrhoeae)
T1 sequence: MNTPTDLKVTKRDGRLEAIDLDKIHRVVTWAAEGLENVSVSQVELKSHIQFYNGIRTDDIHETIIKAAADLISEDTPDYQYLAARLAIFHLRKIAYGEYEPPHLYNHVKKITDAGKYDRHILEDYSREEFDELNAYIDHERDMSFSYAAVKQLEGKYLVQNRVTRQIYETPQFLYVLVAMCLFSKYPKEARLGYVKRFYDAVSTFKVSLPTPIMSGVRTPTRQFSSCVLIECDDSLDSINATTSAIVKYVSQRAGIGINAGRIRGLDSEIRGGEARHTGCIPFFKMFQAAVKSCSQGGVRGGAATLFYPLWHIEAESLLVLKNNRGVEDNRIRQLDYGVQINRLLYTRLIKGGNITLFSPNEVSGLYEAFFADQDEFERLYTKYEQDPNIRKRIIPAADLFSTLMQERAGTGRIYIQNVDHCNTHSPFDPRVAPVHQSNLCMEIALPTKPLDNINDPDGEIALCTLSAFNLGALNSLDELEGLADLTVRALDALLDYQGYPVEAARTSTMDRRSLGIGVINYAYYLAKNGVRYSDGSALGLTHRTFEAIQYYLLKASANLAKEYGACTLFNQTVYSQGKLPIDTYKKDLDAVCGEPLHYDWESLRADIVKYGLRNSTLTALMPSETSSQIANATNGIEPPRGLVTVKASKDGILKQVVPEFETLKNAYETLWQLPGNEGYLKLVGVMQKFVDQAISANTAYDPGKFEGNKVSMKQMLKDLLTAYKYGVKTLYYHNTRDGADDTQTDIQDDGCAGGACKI
Experiment: cryo-EM structure; α and β mixed 1:1.5 (α:β) with 1 mM dATP and 1 mM CDP on ice in 50 mM HEPES pH 7.6, 15 mM MgCl2, 1 mM EDTA; chameleon 54 ms dispense-to-plunge, 6 mg/mL protein (4.3 Å); also Vitrobot grid, 0.5 mg/mL (5.6 Å); dATP-inactivating conditions; both purified

binding: binds
B1: Neisseria gonorrhoeae class Ia ribonucleotide reductase NrdB (β) subunit, hydroxyurea-inactivated (met-β2) (enzyme, UniProt A0ACH0F974 1-377, looked up)
chain: MSYSTFPKTKNDALKEPMFFGQPVNVARYDQQKYEVFEKLIEKQLSFFWRPEEIDVSRDRIDYANLPEHEKHIFISNLKYQTLLDSIQGRSPNVALLPLVSIPELETWVETWSFSETIHSRSYTHIIRNIVNDPSVVFDDIVENEYITARAEDIACYYDDLIEYTQYYNLLGEGVHNVGGKPVTVSLRGLKKKLYLCLMCVNVLEAIRFYVSFACSFAFAERELMEGNAKIIKLIARDEALHLTGTQHMLNLMRSGVDDPEMAEIAAELQDECFQLFKKAAEQEKEWAAYLFKDGSMIGLNKEILSQYVEYITNLRMQAVGLPAGFEGANQNPIPWINAWLSSDNVQVAPQEVEISSYLIGQIDSEVNTDDLGDFEL
notes: N. gonorrhoeae class Ia RNR radical-generating subunit NrdB (β); 377 residues as printed (model holds four residues of the histidine tag, residues 1-346 and 374-376 of 377); expected MW 43253 Da; met-β2: diiron cluster reconstituted (1.8 +/- 0.3 iron per monomer), tyrosyl radical quenched with hydroxyurea; also called NgRNR β; His6-TEV-NgRNR β; source: E. coli T7 Express, pET30a(+), purified …

binding: binds
B2: Neisseria gonorrhoeae class Ia ribonucleotide reductase NrdA (α) subunit (enzyme, UniProt A0ACH0F9A0 1-759)
chain: T1 sequence
